Results reported in patent US20240277861A1, “ANTI-HEPATITIS B VIRUS AGENT TARGETING HOST FACTOR LIPG” (PUROTECH BIO, INC., priority 2021, published 2024).
Part of at least one peptide drawing is inferred or uncertain, most often the ends. Residues, ends and D or L forms follow the SMILES beside them.

Columns and labels:
[1] = test system: LIPG-mediated HBV attachment and entry (preS1 peptide) in PXB cells; assay: Uptake of TMR-labeled preS1 peptide into PXB cells (confocal microscopy); format: cell-based, human; conditions: PXB cells pretreated with 100 nM peptide 15 hours, then FLAG-LIPG 3 hours
Experimental: FIG. 22-1 The effect of LIPG to promote HBV entry into cells and the effect of a LIPG-binding peptide and Netrin-1 to inhibit HBV entry into cells. A: PXB cells were mixed with a purified form of FLAG-LIPG and incubated for 3 hours. The resulting cells were mixed with a preS1 peptide fluorescently labeled with TMR (tetramethylrhodamine) and incubated for 30 minutes, and then observed with a confocal microscope. The fluorescence of the preS1 peptide was detected, and the fluorescence intensity was normalized to the DAPI fluorescence intensity. p<0.05. B: PXB cells were treated with 100 nM LIPG-binding peptide LIPH4-23S or LIPH4-NTNBS for 15 hours, and a purified form of FLAG-LIPG was added thereto, followed by incubation for 3 hours. The resulting cells were mixed with a preS1 peptide fluorescently labeled with TMR and incubated for 30 minutes, and then observed with a confocal microscope. The fluorescence of the preS1 peptide was detected, and the fluorescence intensity was normalized to the DAPI fluorescence intensity. *:p<0.05. C: PXB cells were mixed with Netrin-1 and incubated for 3 hours. […] The fluorescence of the preS1 peptide was detected, and the fluorescence intensity was normalized to the DAPI fluorescence intensity. *:p<0.05. […] The fluorescence of the preS1 peptide was detected, and the fluorescence intensity was normalized to the DAPI fluorescence intensity. […]

[2] = molecular target: T1, binding between preS1 and heparan sulfate enhanced by LIPG (Homo sapiens, UniProt Q9Y5X9); assay: Plate assay of binding between preS1 peptide and immobilized heparan sulfate with FLAG-LIPG; conditions: 10 or 100 nmol of peptide per well, concentration-dependent
T1 construct: FLAG
T1 sequence (Q9Y5X9 21-500): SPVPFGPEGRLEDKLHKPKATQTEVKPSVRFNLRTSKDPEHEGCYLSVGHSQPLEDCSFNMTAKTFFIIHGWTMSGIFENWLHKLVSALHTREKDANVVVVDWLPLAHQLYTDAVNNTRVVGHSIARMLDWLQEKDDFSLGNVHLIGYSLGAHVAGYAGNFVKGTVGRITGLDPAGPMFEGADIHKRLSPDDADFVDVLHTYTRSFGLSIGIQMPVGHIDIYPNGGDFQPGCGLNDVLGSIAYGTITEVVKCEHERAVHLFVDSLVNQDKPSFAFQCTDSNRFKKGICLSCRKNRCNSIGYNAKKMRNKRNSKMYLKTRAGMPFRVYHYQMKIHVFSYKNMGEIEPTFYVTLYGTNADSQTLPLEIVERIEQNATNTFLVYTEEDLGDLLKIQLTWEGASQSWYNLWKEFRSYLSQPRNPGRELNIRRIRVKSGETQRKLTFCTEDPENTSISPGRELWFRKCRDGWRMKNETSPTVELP
Experimental: FIG. 22-2 The effect of LIPG to promote HBV entry into cells and the effect of a LIPG-binding peptide and Netrin-1 to inhibit HBV entry into cells. E: A biotin-labeled form of heparan sulfate was added to a streptavidin-coated 96 well plate and left overnight at 4° C. to allow the heparan sulfate to bind to the plate. This plate was washed with TBS, and 10, 25, or 50 fmol of FLAG-LIPG was then added to each well to allow the reaction to proceed at room temperature for 2 hours. After the plate was washed, 10 or 100 nmol of LIPG-binding peptide LIPH4-NTNBS, LIPH4-23S, LIPH4-NTNBSA, or LIPH4-23SA was added to each well to allow the treatment to proceed at room temperature for 1 hour. Subsequently, the plate was washed, and 0.1 nmol of preS1-TMR was added to each well to allow the treatment to proceed at room temperature for another 1 hour. The plate was washed and then placed in a plate reader to measure the fluorescence of TMR.
Furthermore, PXB cells treated with Netrin-1 were further treated with FLAG-LIPG, and the uptake of the preS1 peptide was examined, to find that the enhancement of the uptake of the preS1 peptide by FLAG-LIPG was suppressed by Netrin-1 (FIG. 22D). […]

CC(C)C[C@H](N)C(=O)N[C@@H](CC(N)=O)C(=O)N[C@@H](CS)C(=O)N[C@@H](CCCNC(=N)N)C(=O)N[C@@H](CC(=O)O)C(=O)N[C@@H](CC(N)=O)C(=O)N[C@H](C(=O)N[C@@H](CCCNC(=N)N)C(=O)O)[C@@H](C)O [LIPH4-23s] (H-LNCRDNTR-OH; N-terminus and C-terminus assumed)
uptake of the preS1 peptide [1]: inhibited the uptake of the preS1 peptide
LIPG-mediated enhancement of binding between preS1 and heparan sulfate [2]: inhibited

C[C@H](NC(=O)[C@@H](NC(=O)[C@H](CC(N)=O)NC(=O)[C@H](Cc1c[nH]cn1)NC(=O)[C@H](CCCNC(=N)N)NC(=O)[C@H](CS)NC(=O)[C@@H](N)CC(N)=O)[C@@H](C)O)C(=O)NCC(=O)O [LIPH4-NTNBs] (H-NCRHNTAG-OH; N-terminus and C-terminus assumed)
uptake of the preS1 peptide [1]: inhibited the uptake of the preS1 peptide
LIPG-mediated enhancement of binding between preS1 and heparan sulfate [2]: inhibited
